# Several values for one entry are separate records, joined by “and”; a condition that tells them apart may be missing. Equal entries are not always repeated. In all, about 400,000 compounds went through this assay and about 5,500 (1.4%) were called active. The shares of active, inactive and inconclusive entries below differ from those in the screen. Calls come from the whole dose curve; as a rule, active = well fitted cell-killing curve with a large enough effect; inconclusive = small, poorly fitted or top-dose-only effect, or effect the other way; inactive = flat fitted curve, though single readings scatter. A potency beside an inconclusive call is a rough fit, not a confirmed value.
# Assay: qHTS assay for MDR1-selective chemotherapeutics: Primary screen using the parental adenocarcinoma cell KB-3-1; note: nearly all actives have a fitted effect of over 60% in size
# Details: KB-3-1 viability, CellTiter-Glo ATP luminescence, 72 h; activity change, negative = cytotoxic: at 46.1 µM (top of the series)
# Method in brief: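 Cytotoxicity in the drug-sensitive parental line KB-3-1 was scored as loss of CellTiter-Glo luminescence following 72 h incubation with compound. Values come from curve fitting of normalized concentration-response data.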
# % is set by controls: 0 for no effect and ±100 for the full control effect; potency is the fitted concentration of half-maximal effect.
Structure (SMILES),Potency,"activity change, negative = cytotoxic"
CCOC(=O)N1CCN(C(=O)CN(c2cccc(C)c2)S(=O)(=O)c2ccc(C)cc2)CC1,inactive,–
Oc1cccc(Nc2ncnc3c2oc2ccccc23)c1,"inconclusive: 29.1 µM [cytotoxic, single point]",–
COC(=O)[C@@H]1[C@@H](C#N)C2(c3ccccc3-c3ccccc32)N(c2ccc(Cl)cc2)N1C#N,"inconclusive: 18.4 µM [cytotoxic, single point]",–
Cc1ccc(CNC(=O)CSCc2nc(-c3cccc(C)c3)oc2C)cc1,"inconclusive: 18.4 µM [cytotoxic, partial curve, poor fit]",–
COc1ccc(CN2Cc3cccc4c3[C@@H](CC2=O)[C@H](O)[C@H](O)C4)cc1,–,inconclusive: 3.33%
Cc1cn2c(=O)c(S(=O)(=O)NCc3ccc(F)cc3)c(C)nc2s1,inactive,–
C#CCN(C(=O)c1cc(COc2cccc(C(F)(F)F)c2)on1)C1CCCCC1,"inconclusive: 18.4 µM [cytotoxic, single point]",–
CCS(=O)(=O)c1nc(S(=O)(=O)c2ccc(Cl)cc2)c(N2CCOCC2)s1,"inconclusive: 29.1 µM [cytotoxic, partial curve, poor fit]",–
CCN1C=C(Cc2ccccc2C)C2=C(C1)C(c1ccccc1C)C(C#N)=C(N)O2 (configuration not stated),"inconclusive: 20.6 µM [cytotoxic, single point]",–
O=C(Nc1ccc(Cl)cn1)c1cccnc1,"inconclusive: 16.4 µM [cytotoxic, single point]",–
O=C(Nc1cccc(-c2cccc(Cl)c2)c1)C1CCN(Cc2ccc(CO)o2)CC1,"inconclusive: 23.1 µM [cytotoxic, single point]",–
C/C(=N\NC(=O)c1ccc(CN2CCc3ccccc3C2)cc1)c1ccccc1O,active: 14.6 µM,–
CCCCCCCCN1C(=O)[C@H](CC(=O)N2CCOCC2)C[C@@]2(C(=O)OC)CCCCC=C12,inactive,–
Cc1cc(OC(C)C(=O)N2C[C@H]3C[C@@H](C2)c2cccc(=O)n2C3)c2c(C)c(C)c(=O)oc2c1 (some centres not stated),inactive,–
CN1CCN(Cc2ccc(-c3ccc(Cl)cc3)o2)CC1,"inconclusive: 18.4 µM [cytotoxic, partial curve]",–
Cc1nnsc1C(=O)NC1CCCc2c1cnn2-c1ccc(C(C)(C)C)cc1 (configuration not stated),"inconclusive: 8.2 µM [cytotoxic, partial curve, poor fit]",–
Cc1ccc(C)c(N(CC(=O)NC2CCCCC2)C(=O)CNC(=O)c2ccco2)c1,inactive,–
C=CCOc1ccc(C(c2c(C(=O)O)[nH]c3ccccc23)c2c(C(=O)O)[nH]c3ccccc23)cc1,inactive,–
CCC(C)C(=O)Nc1nc(C)c(-c2csc(Nc3cc(Cl)ccc3OC)n2)s1 (configuration not stated),inactive,–
O=C(NNC(=O)C12CC3CC(CC(C3)C1)C2)c1ccccn1,"inconclusive: 6.51 µM [cytotoxic, partial curve]",–
Cc1ccc(NC(=O)CC(=O)Nc2ccc(C)cc2C)c(C)c1,"inconclusive: 23.1 µM [cytotoxic, partial curve, poor fit]",–
CCN(C(=O)CC(C)C)c1nnc(Cn2nnc3ccccc32)s1,"inconclusive: 29.1 µM [cytotoxic, single point]",–
O=S(=O)(c1ccc(F)cc1)c1snnc1-c1ccccc1,active: 13 µM,–

Structure (SMILES),Potency,"activity change, negative = cytotoxic"
COc1ccccc1N(CC(=O)N(C)Cc1ccccc1)S(=O)(=O)c1cccs1,inactive,–
COc1ccccc1-c1nnc(NC(=O)C2=COCCO2)o1,inactive,–
CCOC(=O)c1cnc2ccc(C)cc2c1Sc1ccccc1C(=O)OC,"inconclusive: 29.1 µM [cytotoxic, single point]",–
O=C(Cc1ccc(Cl)cc1)Nc1ccc(-c2cc3ccccc3oc2=O)c(Cl)c1,active: 1.3 µM,–
COc1ccc(NC(=O)CN2CCN(CC(=O)Nc3ccccc3Cl)CC2)cc1Cl,inactive,–
CCCCn1c(CNC(=O)C23CC4CC(CC(C4)C2)C3)nnc1SCC(=O)Nc1ccc(F)cc1,inactive,–
CCOC(=O)c1ccc(-n2ncc(C(=O)OCC)c2N)cc1,"inconclusive: 32.6 µM [cytotoxic, single point]",–
Cc1ccc(C(=O)N/C(=C\c2ccc(-c3ccc(Cl)cc3)o2)C(=O)NCCCN(C)C)cc1,"inconclusive: 29.1 µM [cytotoxic, single point]",–
CN(CCOc1ccc(Cl)cc1)C(=O)c1cccc(S(=O)(=O)N2CCN(c3ccccc3)CC2)c1,"inconclusive: 20.6 µM [cytotoxic, single point]",–
Cc1ccc(C(=O)NNC(=O)c2ccc3ccccc3c2O)cc1,"inconclusive: 25.9 µM [cytotoxic, single point]",–
O=C(Cc1ccc(N2CCNC2=O)cc1)N1CCCC(Nc2ccc(F)c(F)c2)C1 (configuration not stated),active: 7.31 µM,–
CC(C)(C)n1nnnc1CN(Cc1ccc(F)cc1)Cc1ccco1,"inconclusive: 23.1 µM [cytotoxic, single point]",–
Cc1ccc(S(=O)(=O)c2c(N)n(Cc3ccco3)c3nc4ccccc4nc23)cc1C,"inconclusive: 29.1 µM [cytotoxic, single point]",–
CC(C)=CCN1CCN(Cc2ccc(C#CC(C)(C)O)s2)CC1CCO (configuration not stated),inactive,–
COC(=O)C1CN(C(=O)COc2cccc(C)c2C)c2ccccc2O1 (configuration not stated),"inconclusive: 0.0146 µM [rising, full curve]",–
O=C(Cn1cc[n+](CC(=O)c2ccc(Cl)cc2Cl)c1)c1ccc(Cl)cc1Cl,"inconclusive: 29.1 µM [cytotoxic, single point]",–
O=C(NCc1ccccc1Cl)c1ccc2c(c1)N(Cc1ccccc1)CCS2,"inconclusive: 16.4 µM [cytotoxic, single point]",–
COc1ccc(/C=C/C(=O)c2cc3cccc(OC)c3oc2=O)cc1,"inconclusive: 29.1 µM [cytotoxic, single point]",–
Cc1ccc2c(c1)/C(=C/c1ccccc1)C(=O)N2,–,inconclusive: -34.3% [cytotoxic]
COc1cccc(-c2cnc(C(O)c3ccc(-c4ccccc4)cc3)[nH]2)c1 (configuration not stated),"inconclusive: 18.4 µM [cytotoxic, single point]",–
O=C(C[n+]1cccc(CNC(=O)c2ccc(OC(F)F)cc2)c1)Nc1cccc(C(F)(F)F)c1,"inconclusive: 29.1 µM [cytotoxic, single point]",–
COC(=O)c1scc(C#N)c1N/N=C(\C#N)S(=O)(=O)c1ccc(Cl)cc1,"inconclusive: 29.1 µM [cytotoxic, single point]",–
CC(=O)c1cccc(NC(=S)NCCc2ccc(Cl)cc2)c1,"inconclusive: 29.1 µM [cytotoxic, single point]",–

# Compounds listed so far with an aryl thioether with sulfur outside any ring, in the order listed:
Structure (SMILES),Potency,"activity change, negative = cytotoxic"
CCOC(=O)c1cnc2ccc(C)cc2c1Sc1ccccc1C(=O)OC,"inconclusive: 29.1 µM [cytotoxic, single point]",–
CCCCn1c(CNC(=O)C23CC4CC(CC(C4)C2)C3)nnc1SCC(=O)Nc1ccc(F)cc1,inactive,–

# One compound at a time, as listed above.
# `CCCCCCCCN1C(=O)[C@H](CC(=O)N2CCOCC2)C[C@@]2(C(=O)OC)CCCCC=C12` reads Potency: inactive
# `CCOC(=O)N1CCN(C(=O)CN(c2cccc(C)c2)S(=O)(=O)c2ccc(C)cc2)CC1` reads Potency: inactive

# Further structures.

Structure (SMILES),Potency,"activity change, negative = cytotoxic"
Cc1ccc(O)c(C(=O)c2cc(C#N)c(=O)n(-c3nccs3)c2)c1,"inconclusive: 23.1 µM [cytotoxic, single point]",–
CCC(c1nnnn1-c1ccc2c(c1)OCCO2)N1CCN(c2ccc(C(F)(F)F)cc2[N+](=O)[O-])CC1 (configuration not stated),"inconclusive: 16.4 µM [cytotoxic, partial curve, poor fit]",–
Cc1c(Br)c([N+](=O)[O-])nn1CC(=O)NC1CCCCCC1,"inconclusive: 29.1 µM [cytotoxic, single point]",–
C[C@@H]1[C@H](c2ccccc2)OCCS(=O)(=O)N1Cc1ccccc1F,"inconclusive: 20.6 µM [cytotoxic, single point]",–
Cn1cccc1C(=O)NC(=O)COC(=O)c1ccc(S(C)(=O)=O)c([N+](=O)[O-])c1,"inconclusive: 25.9 µM [cytotoxic, single point] and inconclusive: 14.6 µM [cytotoxic, partial curve, poor fit]",–
COc1ccc(C(=O)Nc2ccc(NC(=O)c3cccs3)c(OC)c2)cc1Cl,inactive,–
CC(=O)c1c(C)[nH]c(C(=O)OCC(=O)NCc2cccs2)c1C,"inconclusive: 29.1 µM [cytotoxic, single point]",–
Cc1nn(CC(O)c2ccccc2)c(C)c1Br (configuration not stated),inactive,–
Cc1cc(C(=O)CCl)c(C)n1CCc1ccccc1,"inconclusive: 29.1 µM [cytotoxic, single point]",–
COCCCNC(=S)N1CCN(S(=O)(=O)c2ccc(OC)cc2)CC1,"inconclusive: 1.46 µM [cytotoxic, partial curve, poor fit]",–
O=C(NC(=S)N1CCOCC1)c1cn(-c2ccccc2)nc1-c1ccc(F)cc1,inactive,–
Cc1ccc(C)c2[nH]c(=O)c(CN(CCN3CCCC3)C(=O)Nc3cccc(Cl)c3)cc12,"inconclusive: 20.6 µM [cytotoxic, single point]",–
Cc1nc(NC(=S)NC(=O)COc2ccccc2Cl)ccc1Br,inactive,–
COc1ccc(NC(=O)C2Cc3c(-c4cccc(C(N)=O)c4)ccnc3O2)cn1 (configuration not stated),"inconclusive: 29.1 µM [cytotoxic, single point]",–
COc1ccc(/C=N/NC(=O)c2cc3c(OC)ccc(OC)c3[nH]2)cc1O,active: 2.91 µM,–
CN1C(=O)c2ccccc2Cc2c(NCc3ccccc3)ncnc21,"inconclusive: 29.1 µM [cytotoxic, single point]",–
COc1ccc2nc(SCCOC(=O)Nc3ccc(Cl)cc3)nc(C)c2c1,"inconclusive: 29.1 µM [cytotoxic, single point]",–
CC(C)CC(=O)NC(Nc1ccccc1F)C(Cl)(Cl)Cl (configuration not stated),"inconclusive: 7.31 µM [cytotoxic, single point]",–
Cc1ccc(C(=O)N/N=C\c2cc(Br)c(Br)o2)cn1,"inconclusive: 18.4 µM [cytotoxic, single point]",–
Cc1c(CN(C)Cc2cn(C)nc2-c2ccccc2F)[nH]c2ccccc12,inactive,–
CCc1ccc2occ(CC(=O)Nc3ccc(C)c(C)c3)c2c1,"inconclusive: 29.1 µM [cytotoxic, single point]",–
